From paper PMC8426237, “A first-in-human phase I study of TAS0728, an oral covalent binding inhibitor of HER2, in patients with advanced solid tumors with HER2 or HER3 aberrations” (Investigational New Drugs, 2021)

Test: Phase I safety assessment: adverse events (CTCAE v5.0) in patients
Conditions: overall all treated population (N = 19)

Structure (SMILES): C=CC(=O)N1CCC[C@@H](n2nc(C(=O)Nc3ccc(CC(=O)N(C)C)c(C)c3C)c3c(N)ncnc32)C1 [TAS0728]
- Mean relative dose intensity (actual amount of dose administered/amount of planned dose): 74.9%
- Median number of cycles: 4.6
- Median treatment duration: 81.0 days
